Measured values from article PMC4464616, “SIRT6 protein deacetylase interacts with MYH DNA glycosylase, APE1 endonuclease, and Rad9–Rad1–Hus1 checkpoint clamp” (BMC Molecular Biology, 2015).
Results are given in words; binding and its absence hold for the method and conditions named. For part of these data: In cells and extracts the contact can be indirect. Some entries that bind do so weakly or less than the wild type. For part of these data: Where a sequence is shown, tags or fusion partners need not be part of it. One block for each molecule: values may come before it.

By UniProt entry, the sequences of proteins in these tests, tags left out.
UniProt Q8N6T7: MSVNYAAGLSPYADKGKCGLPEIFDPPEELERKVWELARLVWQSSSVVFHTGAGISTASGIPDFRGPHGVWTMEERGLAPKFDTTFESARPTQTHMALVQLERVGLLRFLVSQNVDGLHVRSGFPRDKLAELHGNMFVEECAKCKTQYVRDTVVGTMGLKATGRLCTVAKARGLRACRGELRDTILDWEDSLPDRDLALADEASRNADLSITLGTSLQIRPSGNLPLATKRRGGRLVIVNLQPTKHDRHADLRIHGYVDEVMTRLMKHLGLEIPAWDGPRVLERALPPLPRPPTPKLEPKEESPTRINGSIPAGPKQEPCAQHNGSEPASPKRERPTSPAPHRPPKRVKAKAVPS
UniProt P27695: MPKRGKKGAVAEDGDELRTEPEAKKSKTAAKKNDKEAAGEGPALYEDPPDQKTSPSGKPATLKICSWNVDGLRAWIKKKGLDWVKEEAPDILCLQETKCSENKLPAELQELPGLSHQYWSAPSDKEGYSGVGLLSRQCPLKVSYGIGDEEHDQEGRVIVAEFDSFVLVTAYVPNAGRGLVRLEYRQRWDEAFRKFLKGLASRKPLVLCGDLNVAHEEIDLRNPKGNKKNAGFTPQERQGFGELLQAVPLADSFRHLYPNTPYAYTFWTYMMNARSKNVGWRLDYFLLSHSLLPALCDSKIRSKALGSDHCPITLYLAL

Legend:
[1] = target: human SIRT6 (hSIRT6), endogenous (human (endogenous in HeLa)) (UniProt Q8N6T7); test: co-IP; immunoprecipitation from HeLa cell extracts with hMYH, hAPE1 or hSIRT6 antibody, Western blot; IgG as control; extracts of untreated cells or of cells treated with 0.15 mM H2O2 for 1 h and recovered for 6 h
[2] = target: human AP endonuclease 1 (hAPE1), endogenous (human (endogenous in HeLa)) (UniProt P27695); test: as above
[3] = target: T1, human MutY homolog (hMYH), endogenous (human (endogenous in HeLa)) (UniProt Q9UIF7); test: as above
T1 sequence: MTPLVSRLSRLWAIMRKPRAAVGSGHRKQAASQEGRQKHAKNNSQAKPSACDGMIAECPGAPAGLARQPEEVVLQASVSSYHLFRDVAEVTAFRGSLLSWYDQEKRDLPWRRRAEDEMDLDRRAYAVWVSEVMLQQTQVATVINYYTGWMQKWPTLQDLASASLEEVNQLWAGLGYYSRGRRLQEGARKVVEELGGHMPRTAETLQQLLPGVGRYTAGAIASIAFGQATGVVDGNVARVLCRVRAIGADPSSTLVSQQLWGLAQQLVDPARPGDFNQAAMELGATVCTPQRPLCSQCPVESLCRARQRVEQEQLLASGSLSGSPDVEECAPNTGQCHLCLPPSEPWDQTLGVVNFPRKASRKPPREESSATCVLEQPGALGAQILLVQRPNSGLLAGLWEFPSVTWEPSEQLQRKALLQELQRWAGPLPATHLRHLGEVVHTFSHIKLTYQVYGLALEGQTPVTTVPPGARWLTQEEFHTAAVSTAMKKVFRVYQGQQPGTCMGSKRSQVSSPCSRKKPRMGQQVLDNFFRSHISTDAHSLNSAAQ

GST-hMYH(1-350) Q324H = target: T2, GST-hMYH(1-350) Q324H (human, UniProt Q9UIF7-3 1-350, Q324H); test: pull-down; GST fusion protein immobilised on beads; 50 ug/ml ethidium bromide added for 30 min before the partner; bound protein detected by Western blot (FLAG, hAPE1 or His antibody); in some panels a further purified partner (hAPE1, mSirt6, hHus1) was added; both purified
T2 construct: human MutY homolog (MYH, MUTYH), residues 1-350 with Q324H, a variant found in MAP patients; also called hMYH^Q324H; Q338H according to the new nomenclature; source: purified, immobilised on beads
T2 sequence (looked up): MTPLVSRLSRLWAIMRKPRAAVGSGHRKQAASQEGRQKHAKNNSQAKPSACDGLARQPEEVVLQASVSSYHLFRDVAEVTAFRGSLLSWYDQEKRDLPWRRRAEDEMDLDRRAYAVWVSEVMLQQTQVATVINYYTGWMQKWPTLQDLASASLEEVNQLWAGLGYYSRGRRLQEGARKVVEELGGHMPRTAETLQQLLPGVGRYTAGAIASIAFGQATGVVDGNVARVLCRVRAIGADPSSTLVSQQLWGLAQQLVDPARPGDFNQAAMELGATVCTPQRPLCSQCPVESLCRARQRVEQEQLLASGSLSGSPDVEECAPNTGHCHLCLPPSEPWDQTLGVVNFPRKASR

binding [1]: binds
Molecule: human AP endonuclease 1 (hAPE1), endogenous (from UniProt P27695 1-318)

binding [2]: binds
binding [3]: binds
Molecule: human SIRT6 (hSIRT6), endogenous (from UniProt Q8N6T7 1-355)

binding [1]: binds
B1: human MutY homolog (hMYH), endogenous (protein, UniProt Q9UIF7 1-546)
chain: T1 sequence

binding [1]: binds
B2: human Rad9 (hRad9), endogenous (protein, UniProt Q99638 1-391)
chain: MKCLVTGGNVKVLGKAVHSLSRIGDELYLEPLEDGLSLRTVNSSRSAYACFLFAPLFFQQYQAATPGQDLLRCKILMKSFLSVFRSLAMLEKTVEKCCISLNGRSSRLVVQLHCKFGVRKTHNLSFQDCESLQAVFDPASCPHMLRAPARVLGEAVLPFSPALAEVTLGIGRGRRVILRSYHEEEADSTAKAMVTEMCLGEEDFQQLQAQEGVAITFCLKEFRGLLSFAESANLNLSIHFDAPGRPAIFTIKDSLLDGHFVLATLSDTDSHSQDLGSPERHQPVPQLQAHSTPHPDDFANDDIDSYMIAMETTIGNEGSRVLPSISLSPGPQPPKSPGPHSEEEDEAEPSTVPGTPPPKKFRSLFFGSILAPVRSPQGPSPVLAEDSEGEG

binding (GST-hMYH(1-350) Q324H): no binding
B3: His-tagged human Hus1 (hHus1) (natural protein, UniProt O60921 1-280, looked up)
chain: MKFRAKIVDGACLNHFTRISNMIAKLAKTCTLRISPDKLNFILCDKLANGGVSMWCELEQENFFNEFQMEGVSAENNEIYLELTSENLSRALKTAQNARALKIKLTNKHFPCLTVSVELLSMSSSSRIVTHDIPIKVIPRKLWKDLQEPVVPDPDVSIYLPVLKTMKSVVEKMKNISNHLVIEANLDGELNLKIETELVCVTTHFKDLGNPPLASESTHEDRNVEHMAEVHIDIRKLLQFLAGQQVNPTKALCNIVNNKMVHFDLLHEDVSLQYFIPALS
notes: human Hus1, subunit of the Rad9-Rad1-Hus1 checkpoint clamp; pET21a usually adds a C-terminal His6 (surmise); source: E. coli BL21-Star with pET21a-hHus1, purified
